# Inconclusive results, whose numbers are uncertain, are shown with a selection of clear calls. For some of these results: Potencies beside an inconclusive call are fits to weak or partial responses and may not hold up. Active and inactive are the calls of the source. Rule for the calls: active = hit-call score of the fitted dose curve at least 0.9, where 1 is the maximum; inconclusive = response in the unintended direction; inactive = score below 0.9.
# Protein sequences, listed by entry. Tags and fused reporters are not part of them. Lines headed by an entry give the natural chain unless they say otherwise; changes in a name come on top.
# UniProt P04637, whole entry, looked up: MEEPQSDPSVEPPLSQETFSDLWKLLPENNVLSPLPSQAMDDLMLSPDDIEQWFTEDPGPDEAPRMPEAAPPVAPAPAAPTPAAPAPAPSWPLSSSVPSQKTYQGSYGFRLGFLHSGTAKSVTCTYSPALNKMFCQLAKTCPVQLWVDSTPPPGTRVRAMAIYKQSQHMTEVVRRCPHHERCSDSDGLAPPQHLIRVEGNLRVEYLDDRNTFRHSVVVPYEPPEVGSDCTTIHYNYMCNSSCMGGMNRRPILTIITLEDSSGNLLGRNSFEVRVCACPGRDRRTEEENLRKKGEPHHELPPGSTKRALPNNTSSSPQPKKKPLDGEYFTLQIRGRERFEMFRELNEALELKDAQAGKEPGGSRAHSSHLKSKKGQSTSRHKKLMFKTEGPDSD
# UniProt P10827: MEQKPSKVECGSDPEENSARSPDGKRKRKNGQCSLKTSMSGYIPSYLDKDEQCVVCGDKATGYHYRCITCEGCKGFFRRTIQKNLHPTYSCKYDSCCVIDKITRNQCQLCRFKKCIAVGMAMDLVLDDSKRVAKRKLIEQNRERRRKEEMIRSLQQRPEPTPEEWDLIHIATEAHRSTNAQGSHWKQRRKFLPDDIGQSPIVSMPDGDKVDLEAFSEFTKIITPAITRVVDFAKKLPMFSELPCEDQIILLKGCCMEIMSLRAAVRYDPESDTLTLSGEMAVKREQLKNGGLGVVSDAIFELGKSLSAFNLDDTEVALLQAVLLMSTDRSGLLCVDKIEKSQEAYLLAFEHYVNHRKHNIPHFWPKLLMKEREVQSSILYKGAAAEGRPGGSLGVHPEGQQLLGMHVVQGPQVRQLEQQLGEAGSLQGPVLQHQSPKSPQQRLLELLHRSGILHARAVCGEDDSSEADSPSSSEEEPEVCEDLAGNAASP
# UniProt P08659, whole entry, looked up: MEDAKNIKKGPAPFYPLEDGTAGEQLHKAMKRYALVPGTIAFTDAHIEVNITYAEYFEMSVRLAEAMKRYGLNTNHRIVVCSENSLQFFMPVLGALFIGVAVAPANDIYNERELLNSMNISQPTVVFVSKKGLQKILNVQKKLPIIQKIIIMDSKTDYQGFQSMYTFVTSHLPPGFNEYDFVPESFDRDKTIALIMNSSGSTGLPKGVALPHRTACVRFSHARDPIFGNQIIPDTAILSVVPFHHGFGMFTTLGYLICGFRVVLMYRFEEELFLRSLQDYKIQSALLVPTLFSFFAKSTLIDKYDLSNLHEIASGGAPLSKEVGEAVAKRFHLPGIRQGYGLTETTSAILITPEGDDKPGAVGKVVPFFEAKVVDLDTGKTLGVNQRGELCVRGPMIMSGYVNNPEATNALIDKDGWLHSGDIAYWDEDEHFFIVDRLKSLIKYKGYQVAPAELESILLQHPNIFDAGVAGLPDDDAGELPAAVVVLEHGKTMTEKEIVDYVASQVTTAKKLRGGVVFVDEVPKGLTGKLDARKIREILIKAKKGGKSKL
# Assays:
# [1] = TOX21_p53_BLA_p4_viability: Viability Assessment in the Tox21 HCT-116 p53 Agonism Beta-lactamase Assay, Phase 4 (AID 2283597);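 note: hits lower the luminescence signal meaning cytotoxicity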
# Procedure, shortened: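 Viability is taken as cellular ATP: after 16 h compound exposure of HCT116 cells and a 2 h room-temperature CCF4-AM substrate step, CellTiter-Glo reagent is added and luminescence is measured 30 min later.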
# [2] = target: Cellular tumor antigen p53 (Homo sapiens) (UniProt P04637); test: TOX21_p53_BLA_p4_ratio: Tox21 HCT-116 p53 Agonism Beta-lactamase Assay, Ratio, Phase 4 (AID 2283601)
# Procedure, shortened: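 Signal is the blue/green (460nm/530nm) ratio of cleaved versus uncleaved CCF4-AM substrate, read after 2 h substrate loading. Cells were HCT116 carrying the p53-responsive beta-lactamase reporter, dosed 16 h at 37C, 5% CO2; CellTiter-Glo measured in parallel.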
# [3] = TOX21_p53_BLA_p5_viability: Viability Assessment in the Tox21 HCT-116 p53 Agonism Beta-lactamase Assay, Phase 5 (AID 2283600)
# Procedure, shortened: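 Viability is taken from cellular ATP content, measured by luciferase luminescence in the same wells after the beta-lactamase ratio read. Cells are seeded at 4000 per well and exposed to DMSO-dissolved compounds, diluted 217-fold, for 16 h.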
# [4] = target: Cellular tumor antigen p53 (Homo sapiens) (UniProt P04637); test: TOX21_p53_BLA_p5_ratio: Tox21 HCT-116 p53 Agonism Beta-lactamase Assay, Ratio, Phase 5 (AID 2283599)
# Procedure, shortened: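 Beta-lactamase reporter ratio (blue 460 nm over green 530 nm, 405 nm excitation) after 2 h CCF4-AM loading, in HCT-116 cells exposed 16 h at 37 C to compounds pinned at 217-fold dilution. Increases relative to DMSO baseline scored.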
# [5] = target: Thyroid hormone receptor alpha (Rattus norvegicus) + Thyroid hormone receptor beta (Rattus norvegicus) (UniProt P18113+P63059); test: TOX21_TR_LUC_GH3_Antagonist_Followup: Tox21 GH3 Thyroid Hormone Receptor Antagonism Luciferase Follow-Up Assay (AID 2283942)
# Procedure, shortened: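 Loss of T3-driven (1.0 nM final) reporter activity in GH3 cells was read by ONE-Glo luminescence after 24 h incubation at 37C; 15-point compound series spanned 92 uM to 5nM final, 1,500 cells/well.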
# THRA (gene 7067) = THRA (gene 7067) (UniProt P10827); test: TOX21_TRA_COA_Antagonist_Followup_ratio: Tox21 Thyroid Hormone Receptor alpha Antagonism through Coactivator Recruitment Follow-Up Assay, Ratio (AID 2283953)
# Procedure, shortened: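 We measured antagonism of T3-type coactivator recruitment using a TR-FRET ratio (emission 520 and 495 nm) between a Tb-labelled anti-GST antibody on TRα LBD (2.5 nM) and SRC-2 peptide (200 nM). Activity was scaled between DMSO and T3 wells.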
# [6] = CCTE_Deisenroth_AIME_96WELL_CTox_Active: Cytotoxicity Assessment (CTOX) in CCTE's 96-well Estrogen Receptor Transactivation Assay with AIME metabolic competence (metabolism positive), Deisenroth Lab (AID 2284028)
# Procedure, shortened: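 Cytotoxicity in VM7Luc4E2 breast cells after 24 h exposure to medium from a 2 h metabolic pre-incubation with induced rat hepatic S9 in alginate microspheres; fluorescent live-cell protease readout, 10-point series 0.002–200 uM, n=4.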
# [7] = CCTE_Deisenroth_AIME_96WELL_CTox_Inactive: Cytotoxicity Assessment (CTOX) in CCTE's 96-well Estrogen Receptor Transactivation Assay without AIME metabolic competence (metabolism negative), Deisenroth Lab (AID 2284029)
# Procedure, shortened: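 Cytotoxicity in VM7Luc4E2 breast cells was scored as loss of fluorescent signal from a live-cell protease substrate 24 h after exposure, using bidirectional curve fitting. Test media came from a 2 h metabolism-negative pre-incubation (alginate-water, no hepatic S9) of compounds at 0.002-200 uM, with at least four replicates.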
# [8] = TOX21_PR_LUC_Followup_Agonist_viability: Viability Assessment in the Tox21 HEK293 Progesterone Receptor (PR) Agonism Luciferase Follow-Up Assay (AID 2283941);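 note: loss of signal means cytotoxicity so actives lower viability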
# Procedure, shortened: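 Cytotoxicity counter-screen: ATP content by CellTiter-Glo luminescence, loss of signal = reduced viability. HEK293-PR-A-luc, 3,000 cells/well, compound exposure 16 h, 37C.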
# [9] = tested on: Thyroperoxidase (TPO), gene 54314; test: CCTE_Simmons_AUR_rTPO: CCTE's Amplex UltraRed Assay for Thyroperoxidase (TPO) Inhibition, Simmons Lab (AID 2283662)
# Procedure, shortened: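 Rat thyroid microsomes (5 ug protein) with 25 uM Amplex UltraRed and 300 uM H2O2 in 200 mM phosphate buffer, 30 min at 37C in dark; fluorescence 544/590 nm. Eight concentrations, 5 nM–87.5 uM final, 0.5% DMSO, triplicate biological replicates.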
# [10] = target: Luciferin 4-monooxygenase (Photinus pyralis) (UniProt P08659); test: CCTE_Simmons_QuantiLum_inhib_2: CCTE's Firefly Luciferase Inhibition Assay, Simmons Lab (AID 2283767);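 note: potency for inhibitors that lower luciferase luminescence relative to DMSO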
# Procedure, shortened: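 Cell-free QuantiLum luciferase, 5 ng/well; compounds 5 nM–87.5 uM final, 8 conc, 0.5% DMSO; 30 min, 37C, dark. Detection reagent (150 uM D-luciferin, 147 uM dATP, CoA, DTT, pH 7.8 final) injected per well, kinetic luminescence. Triplicate biological replicates.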
smiles,measurement,setting,value
NC(=O)c1ccc([N+](=O)[O-])cc1,AC50,[1],inconclusive: 45.9 µM
same,AC50,[2],inconclusive: 45.9 µM
C=CC1=C(C)C2=CC3=NC(=C(CC(=O)[O-])C4=NC(=C(C)C4=C([O-])[O-])C=c4[n-]c(c(C)c4CC)=CC1=N2)[C@@H](CCC(=O)[O-])[C@@H]3C.[Cu+2].[Na+].[Na+].[Na+],outcome,[3],inactive
CC1(C)CC(N)CC(C)(C)N1,AC50,[4],inconclusive: 46.1 µM
Cc1cc(O)c2c(O)c3c(O)cccc3cc2c1,outcome,[1],inactive
same,AC50,[2],inconclusive: 11.9 µM
O=C(O)c1cccc(-c2noc(-c3ccccc3F)n2)c1,AC50,[1],active: 23 µM
same,AC50,[2],inconclusive: 23 µM
same,AC50,[5],inconclusive: 0.00184 µM
same,AC50,THRA (gene 7067),inconclusive: 19.2 µM
COC(=O)c1ccccc1Cl,AC50,[1],inconclusive: 0.346 µM
same,AC50,[2],inconclusive: 46.1 µM
CC(C)(c1ccccc1)c1ccccc1,AC50,[1],inconclusive: 0.0219 µM
same,AC50,[3],inconclusive: 81.6 µM
same,outcome,[6],inactive
same,outcome,[7],inactive
CO/N=C(\C(=O)N[C@@H]1C(=O)N2C(C(=O)O)=C(CSC(=O)c3ccco3)CS[C@H]12)c1csc(N)n1,outcome,[4],inactive
same,AC50,[2],inconclusive: 23 µM
COC(=O)[C@H]1[C@H]2C[C@H]3c4[nH]c5ccccc5c4CCN3C[C@H]2CC[C@@H]1O,AC50,[1],inconclusive: 23 µM
same,AC50,[3],inconclusive: 0.00133 µM
same,AC50,[2],inconclusive: 23 µM
N#C/C(=C1/SC[C@@H](c2ccc(Cl)cc2Cl)S1)n1ccnc1,AC50,[1],inconclusive: 23 µM
same,AC50,[3],inconclusive: 23 µM
same,AC50,[8],inconclusive: 23 µM
CNC[C@@H]1CC[C@@H](N)[C@@H](O[C@H]2[C@H](O)[C@@H](O[C@H]3OC[C@](C)(O)[C@H](NC)[C@H]3O)[C@H](N)C[C@@H]2N)O1,AC50,[4],inconclusive: 23 µM
same,AC50,[2],inconclusive: 23 µM
Cc1nc2n(c(=O)c1CCN1CCC(c3noc4cc(F)ccc34)CC1)CCC[C@H]2O,outcome,[2],inactive
Cc1ccc(NC(=O)c2ccc(CN3CCN(C)CC3)cc2)cc1Nc1nccc(-c2cccnc2)n1,AC50,[3],inconclusive: 6.01 µM
same,outcome,[2],inactive
Cc1ccc(C=C2C(=O)C3(C)CCC2C3(C)C)cc1 (stereo unspecified),outcome,[9],inactive
same,AC50,[10],inconclusive: 0.0971 µM

# Some of the entries so far, bar-delimited.
smiles | measurement | setting | value
CC(C)(c1ccccc1)c1ccccc1 | outcome | [7] | inactive
CO/N=C(\C(=O)N[C@@H]1C(=O)N2C(C(=O)O)=C(CSC(=O)c3ccco3)CS[C@H]12)c1csc(N)n1 | outcome | [4] | inactive
same | AC50 | [2] | inconclusive: 23 µM
COC(=O)[C@H]1[C@H]2C[C@H]3c4[nH]c5ccccc5c4CCN3C[C@H]2CC[C@@H]1O | AC50 | [1] | inconclusive: 23 µM
same | AC50 | [3] | inconclusive: 0.00133 µM
same | AC50 | [2] | inconclusive: 23 µM
N#C/C(=C1/SC[C@@H](c2ccc(Cl)cc2Cl)S1)n1ccnc1 | AC50 | [1] | inconclusive: 23 µM
same | AC50 | [3] | inconclusive: 23 µM
